Measurements from article PMC8977034 (Journal of Nanobiotechnology, 2022).

Test: peptide made by a vendor
Conditions: whole synthesis

Ac-LWALWK(Ac)K(Ac)K(Ac)RRHRRRHR
final HPLC purity: 96.12%
